The values that follow are results of earlier work, collected in patent US20050065213A1, “Combretastatin a-4 derivatives having antineoplastic activity” (priority 2001, published 2005).

This data set concerns P388 murine leukaemia cell line. The following applies: cell growth inhibition; cited from earlier work.

With `COc1ccc(/C=C\c2cc(OC)c(OC)c(OC)c2)cc1O` [combretastatin A-4, cis-combretastatin A-4], the IC50 was 2.6 nM.

Broadly, the IC50 is the concentration that gives 50% inhibition.
